No constants are given. Whether binding was seen depends on the method and setting. In cells and extracts the contact can be indirect. Here binding means that the protein was enriched with, or labelled near, the bait; the list need not be complete. For some of these results: A no says only that the protein was not detected with the bait. Values belong to the molecule of their own block, whether it stands above or below them.
Columns and labels:
[1] = target: Proprotein convertase subtilisin/kexin type 9 (PCSK9), recombinant full-length (human) (UniProt Q8NBP7); assay: affinity purification with mass spectrometry; as a1 but at pH 7.4, protein A Dynabeads, eluted by boiling; only the target purified
[2] = target: Proprotein convertase subtilisin/kexin type 9 (PCSK9), recombinant full-length (human) (UniProt Q8NBP7); assay: affinity purification with mass spectrometry; PCSK9 (20 μg/ml) premixed with J16 (40 μg/ml), added to precleared HepG2 or HEK293 lysate in IP buffer pH 6.0 (0.5% Triton X-100, 20 mM Hepes, 150 mM NaCl, 20 mM CaCl2), 2 h; protein G beads; eluted with pH 8.0 IP buffer; LC-MS/MS; J16 without PCSK9 as negative control; only the target purified
[3] = target: Proprotein convertase subtilisin/kexin type 9 (PCSK9), recombinant full-length (human) (UniProt Q8NBP7); assay: as above; remark: listed apart in the source

Sequences of proteins named here, by UniProt entry; tags and fusion partners are left off. A change or cut given only in a name is not applied to a line headed by its entry. Residues count along the entry.
UniProt Q8NBP7: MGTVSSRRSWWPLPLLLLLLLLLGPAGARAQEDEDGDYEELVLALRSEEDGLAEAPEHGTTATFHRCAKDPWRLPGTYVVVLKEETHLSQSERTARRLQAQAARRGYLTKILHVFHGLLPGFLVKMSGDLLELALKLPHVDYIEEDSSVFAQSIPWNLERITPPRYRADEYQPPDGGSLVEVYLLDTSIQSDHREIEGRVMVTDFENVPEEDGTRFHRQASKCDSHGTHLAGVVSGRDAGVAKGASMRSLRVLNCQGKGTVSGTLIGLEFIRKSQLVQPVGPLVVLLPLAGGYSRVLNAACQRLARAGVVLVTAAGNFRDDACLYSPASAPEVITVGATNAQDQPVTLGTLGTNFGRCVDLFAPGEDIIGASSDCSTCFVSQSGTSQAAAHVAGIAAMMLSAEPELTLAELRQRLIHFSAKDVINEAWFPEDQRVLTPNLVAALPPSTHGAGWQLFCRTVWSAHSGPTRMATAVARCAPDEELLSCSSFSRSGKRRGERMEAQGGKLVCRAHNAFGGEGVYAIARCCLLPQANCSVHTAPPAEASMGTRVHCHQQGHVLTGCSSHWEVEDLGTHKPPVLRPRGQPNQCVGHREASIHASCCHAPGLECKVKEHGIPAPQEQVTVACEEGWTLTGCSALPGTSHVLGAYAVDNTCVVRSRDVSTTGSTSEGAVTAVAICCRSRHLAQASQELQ
UniProt P05067, residues 18-770: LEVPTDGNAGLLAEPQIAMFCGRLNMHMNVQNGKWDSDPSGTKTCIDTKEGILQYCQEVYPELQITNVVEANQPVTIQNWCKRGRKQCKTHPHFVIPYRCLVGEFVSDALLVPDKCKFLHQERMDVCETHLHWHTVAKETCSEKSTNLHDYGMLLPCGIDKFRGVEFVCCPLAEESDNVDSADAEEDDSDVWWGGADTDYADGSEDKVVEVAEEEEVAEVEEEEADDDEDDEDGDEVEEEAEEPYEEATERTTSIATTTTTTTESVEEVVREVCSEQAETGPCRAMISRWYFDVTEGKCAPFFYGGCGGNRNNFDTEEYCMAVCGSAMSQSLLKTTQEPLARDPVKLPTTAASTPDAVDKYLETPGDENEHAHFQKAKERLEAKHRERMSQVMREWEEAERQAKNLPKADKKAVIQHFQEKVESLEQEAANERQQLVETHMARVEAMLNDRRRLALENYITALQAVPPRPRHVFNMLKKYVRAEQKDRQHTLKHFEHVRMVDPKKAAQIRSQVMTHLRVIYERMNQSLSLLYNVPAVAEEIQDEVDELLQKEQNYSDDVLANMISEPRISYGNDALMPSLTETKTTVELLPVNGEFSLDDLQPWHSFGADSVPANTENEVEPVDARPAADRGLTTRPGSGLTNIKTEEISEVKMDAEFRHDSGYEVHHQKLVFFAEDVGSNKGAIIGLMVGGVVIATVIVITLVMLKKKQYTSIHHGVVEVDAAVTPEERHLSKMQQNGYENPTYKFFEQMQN
UniProt Q06481, residues 32-763: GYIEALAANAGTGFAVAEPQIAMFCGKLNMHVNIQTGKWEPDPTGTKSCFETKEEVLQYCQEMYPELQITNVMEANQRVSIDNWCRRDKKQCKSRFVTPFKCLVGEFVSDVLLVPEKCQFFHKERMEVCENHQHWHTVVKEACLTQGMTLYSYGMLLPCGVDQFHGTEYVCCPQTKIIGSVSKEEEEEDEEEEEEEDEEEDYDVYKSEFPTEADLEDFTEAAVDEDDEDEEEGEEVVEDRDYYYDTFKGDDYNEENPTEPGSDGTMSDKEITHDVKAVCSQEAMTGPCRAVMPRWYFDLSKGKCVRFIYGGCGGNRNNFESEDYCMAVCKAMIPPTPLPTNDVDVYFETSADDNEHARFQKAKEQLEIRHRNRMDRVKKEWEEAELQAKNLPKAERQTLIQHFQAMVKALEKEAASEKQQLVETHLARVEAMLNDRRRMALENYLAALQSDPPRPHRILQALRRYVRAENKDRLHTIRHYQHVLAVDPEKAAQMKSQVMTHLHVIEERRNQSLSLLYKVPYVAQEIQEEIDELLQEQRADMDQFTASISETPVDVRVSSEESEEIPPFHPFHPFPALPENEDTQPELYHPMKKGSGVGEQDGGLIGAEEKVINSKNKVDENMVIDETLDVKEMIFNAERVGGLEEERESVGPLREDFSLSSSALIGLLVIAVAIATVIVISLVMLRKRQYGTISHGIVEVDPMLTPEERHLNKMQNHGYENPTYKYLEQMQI
UniProt P53621: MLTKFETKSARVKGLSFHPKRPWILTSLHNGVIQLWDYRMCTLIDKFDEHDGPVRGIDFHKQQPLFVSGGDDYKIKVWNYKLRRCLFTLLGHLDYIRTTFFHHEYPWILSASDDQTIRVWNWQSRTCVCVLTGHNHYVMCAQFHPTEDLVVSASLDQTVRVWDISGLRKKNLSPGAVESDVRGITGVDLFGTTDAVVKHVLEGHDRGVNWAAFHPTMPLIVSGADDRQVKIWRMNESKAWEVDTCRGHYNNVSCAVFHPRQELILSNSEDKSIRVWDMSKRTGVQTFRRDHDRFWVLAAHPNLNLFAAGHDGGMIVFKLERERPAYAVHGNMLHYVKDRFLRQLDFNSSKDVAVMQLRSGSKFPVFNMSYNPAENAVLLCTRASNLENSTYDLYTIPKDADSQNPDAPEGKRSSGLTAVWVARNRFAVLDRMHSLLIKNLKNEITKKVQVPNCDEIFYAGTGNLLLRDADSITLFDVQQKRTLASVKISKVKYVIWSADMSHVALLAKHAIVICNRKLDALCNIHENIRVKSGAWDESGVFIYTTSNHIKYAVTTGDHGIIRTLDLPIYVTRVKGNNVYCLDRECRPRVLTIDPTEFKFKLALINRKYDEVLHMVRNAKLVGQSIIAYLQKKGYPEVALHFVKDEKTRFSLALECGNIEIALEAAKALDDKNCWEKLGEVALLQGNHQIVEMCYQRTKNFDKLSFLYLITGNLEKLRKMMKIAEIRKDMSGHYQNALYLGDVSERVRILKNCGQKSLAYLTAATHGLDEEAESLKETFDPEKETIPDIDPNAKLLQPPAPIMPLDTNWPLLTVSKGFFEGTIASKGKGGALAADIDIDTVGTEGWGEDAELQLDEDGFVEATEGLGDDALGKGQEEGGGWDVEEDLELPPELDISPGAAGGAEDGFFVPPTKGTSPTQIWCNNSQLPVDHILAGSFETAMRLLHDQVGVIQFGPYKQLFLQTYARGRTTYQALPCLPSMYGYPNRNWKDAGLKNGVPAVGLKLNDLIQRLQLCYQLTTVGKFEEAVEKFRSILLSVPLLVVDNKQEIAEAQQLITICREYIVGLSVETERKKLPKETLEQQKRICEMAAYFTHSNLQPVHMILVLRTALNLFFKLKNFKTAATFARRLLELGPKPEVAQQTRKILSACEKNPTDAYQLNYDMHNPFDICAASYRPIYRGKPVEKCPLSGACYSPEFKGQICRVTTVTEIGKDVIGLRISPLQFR
UniProt Q15436: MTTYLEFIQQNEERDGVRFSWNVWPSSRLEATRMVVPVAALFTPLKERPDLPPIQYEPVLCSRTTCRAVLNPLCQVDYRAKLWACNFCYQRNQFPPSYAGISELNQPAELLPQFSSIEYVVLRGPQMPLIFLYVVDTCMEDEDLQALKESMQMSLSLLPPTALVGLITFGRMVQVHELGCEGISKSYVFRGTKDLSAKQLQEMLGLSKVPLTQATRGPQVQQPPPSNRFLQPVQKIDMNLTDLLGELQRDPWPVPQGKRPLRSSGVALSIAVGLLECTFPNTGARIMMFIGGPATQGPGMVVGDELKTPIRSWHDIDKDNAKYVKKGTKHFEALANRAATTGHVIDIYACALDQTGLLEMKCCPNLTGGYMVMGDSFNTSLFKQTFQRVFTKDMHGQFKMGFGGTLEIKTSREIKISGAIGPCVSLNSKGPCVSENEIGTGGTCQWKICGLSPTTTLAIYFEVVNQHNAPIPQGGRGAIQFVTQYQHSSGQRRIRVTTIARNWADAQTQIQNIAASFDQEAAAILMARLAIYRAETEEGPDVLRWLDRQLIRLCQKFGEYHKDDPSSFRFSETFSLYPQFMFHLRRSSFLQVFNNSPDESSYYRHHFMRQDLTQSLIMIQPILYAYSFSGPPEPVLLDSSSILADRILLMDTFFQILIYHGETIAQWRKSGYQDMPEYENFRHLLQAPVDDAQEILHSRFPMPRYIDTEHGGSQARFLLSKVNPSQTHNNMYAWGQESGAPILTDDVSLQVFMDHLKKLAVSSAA
UniProt Q9Y5X1: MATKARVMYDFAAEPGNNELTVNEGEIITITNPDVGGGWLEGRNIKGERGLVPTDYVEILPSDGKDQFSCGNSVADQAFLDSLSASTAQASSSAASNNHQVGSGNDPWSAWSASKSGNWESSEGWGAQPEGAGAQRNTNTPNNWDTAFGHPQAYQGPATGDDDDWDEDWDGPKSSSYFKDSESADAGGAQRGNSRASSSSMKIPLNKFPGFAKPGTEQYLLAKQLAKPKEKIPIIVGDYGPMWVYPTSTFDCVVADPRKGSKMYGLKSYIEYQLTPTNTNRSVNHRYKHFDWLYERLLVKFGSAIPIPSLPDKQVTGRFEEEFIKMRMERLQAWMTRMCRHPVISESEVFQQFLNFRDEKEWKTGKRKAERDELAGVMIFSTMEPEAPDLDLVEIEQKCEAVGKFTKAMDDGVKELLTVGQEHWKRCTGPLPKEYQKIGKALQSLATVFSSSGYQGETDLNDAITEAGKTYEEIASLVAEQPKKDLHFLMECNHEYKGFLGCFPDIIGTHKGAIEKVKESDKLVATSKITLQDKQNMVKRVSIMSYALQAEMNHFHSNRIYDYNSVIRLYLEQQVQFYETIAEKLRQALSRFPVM
UniProt Q93009: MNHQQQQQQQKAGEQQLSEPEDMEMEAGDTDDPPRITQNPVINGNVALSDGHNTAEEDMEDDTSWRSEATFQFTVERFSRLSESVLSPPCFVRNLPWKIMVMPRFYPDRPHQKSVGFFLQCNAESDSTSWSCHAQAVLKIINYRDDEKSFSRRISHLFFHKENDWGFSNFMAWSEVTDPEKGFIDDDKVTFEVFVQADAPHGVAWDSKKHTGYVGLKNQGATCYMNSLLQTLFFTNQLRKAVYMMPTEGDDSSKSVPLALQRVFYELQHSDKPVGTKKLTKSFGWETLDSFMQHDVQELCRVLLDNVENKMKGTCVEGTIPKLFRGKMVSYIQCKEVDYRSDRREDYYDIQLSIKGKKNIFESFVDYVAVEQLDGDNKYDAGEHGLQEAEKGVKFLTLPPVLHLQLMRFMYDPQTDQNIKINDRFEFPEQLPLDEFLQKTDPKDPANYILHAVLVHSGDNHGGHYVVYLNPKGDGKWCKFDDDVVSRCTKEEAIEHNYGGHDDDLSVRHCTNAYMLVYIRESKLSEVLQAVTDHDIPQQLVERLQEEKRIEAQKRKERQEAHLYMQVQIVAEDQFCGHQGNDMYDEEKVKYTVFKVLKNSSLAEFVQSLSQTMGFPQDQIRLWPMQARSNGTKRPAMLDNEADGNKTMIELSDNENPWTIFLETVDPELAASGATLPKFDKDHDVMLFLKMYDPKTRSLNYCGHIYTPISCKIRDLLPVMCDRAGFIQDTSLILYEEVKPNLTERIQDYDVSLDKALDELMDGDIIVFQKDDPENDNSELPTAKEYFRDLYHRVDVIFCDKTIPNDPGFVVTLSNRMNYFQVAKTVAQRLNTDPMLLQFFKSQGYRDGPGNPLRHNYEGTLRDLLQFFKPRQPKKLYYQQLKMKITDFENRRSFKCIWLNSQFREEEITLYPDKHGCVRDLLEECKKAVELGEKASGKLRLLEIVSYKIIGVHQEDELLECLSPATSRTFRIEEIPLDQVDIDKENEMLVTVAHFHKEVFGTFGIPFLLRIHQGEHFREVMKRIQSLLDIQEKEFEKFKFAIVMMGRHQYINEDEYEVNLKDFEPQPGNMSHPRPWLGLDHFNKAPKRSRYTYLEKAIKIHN

- binding [1]: no binding (only at pH 7.4)
- binding [2]: binds
Molecule: Amyloid β A4 protein (APP), endogenous (from UniProt P05067 18-770)

- binding [1]: no binding (only at pH 7.4)
- binding [2]: binds
Molecule: Amyloid-like protein 2 (APLP2), endogenous (from UniProt Q06481 32-763)

- binding [3]: binds
B1: Squamous cell carcinoma antigen recognized by T-cells 3 (protein, UniProt Q15020 1-963)
chain: MATAAETSASEPEAESKAGPKADGEEDEVKAARTRRKVLSRAVAAATYKTMGPAWDQQEEGVSESDGDEYAMASSAESSPGEYEWEYDEEEEKNQLEIERLEEQLSINVYDYNCHVDLIRLLRLEGELTKVRMARQKMSEIFPLTEELWLEWLHDEISMAQDGLDREHVYDLFEKAVKDYICPNIWLEYGQYSVGGIGQKGGLEKVRSVFERALSSVGLHMTKGLALWEAYREFESAIVEAARLEKVHSLFRRQLAIPLYDMEATFAEYEEWSEDPIPESVIQNYNKALQQLEKYKPYEEALLQAEAPRLAEYQAYIDFEMKIGDPARIQLIFERALVENCLVPDLWIRYSQYLDRQLKVKDLVLSVHNRAIRNCPWTVALWSRYLLAMERHGVDHQVISVTFEKALNAGFIQATDYVEIWQAYLDYLRRRVDFKQDSSKELEELRAAFTRALEYLKQEVEERFNESGDPSCVIMQNWARIEARLCNNMQKARELWDSIMTRGNAKYANMWLEYYNLERAHGDTQHCRKALHRAVQCTSDYPEHVCEVLLTMERTEGSLEDWDIAVQKTETRLARVNEQRMKAAEKEAALVQQEEEKAEQRKRARAEKKALKKKKKIRGPEKRGADEDDEKEWGDDEEEQPSKRRRVENSIPAAGETQNVEVAAGPAGKCAAVDVEPPSKQKEKAASLKRDMPKVLHDSSKDSITVFVSNLPYSMQEPDTKLRPLFEACGEVVQIRPIFSNRGDFRGYCYVEFKEEKSALQALEMDRKSVEGRPMFVSPCVDKSKNPDFKVFRYSTSLEKHKLFISGLPFSCTKEELEEICKAHGTVKDLRLVTNRAGKPKGLAYVEYENESQASQAVMKMDGMTIKENIIKVAISNPPQRKVPEKPETRKAPGGPMLLPQTYGARGKGRTQLSLLPRALQRPSAAAPQAENGPAAAPAVAAPAATEAPKMSNADFAKLFLRK

- binding [3]: binds
B2: Uncharacterized protein C4orf14 (protein, UniProt Q8NC60 1-698)
chain: MLPARLPFRLLSLFLRGSAPTAARHGLREPLLERRCAAASSFQHSSSLGRELPYDPVDTEGFGEGGDMQERFLFPEYILDPEPQPTREKQLQELQQQQEEEERQRQQRREERRQQNLRARSREHPVVGHPDPALPPSGVNCSGCGAELHCQDAGVPGYLPREKFLRTAEADGGLARTVCQRCWLLSHHRRALRLQVSREQYLELVSAALRRPGPSLVLYMVDLLDLPDALLPDLPALVGPKQLIVLGNKVDLLPQDAPGYRQRLRERLWEDCARAGLLLAPGHQGPQRPVKDEPQDGENPNPPNWSRTVVRDVRLISAKTGYGVEELISALQRSWRYRGDVYLVGATNAGKSTLFNTLLESDYCTAKGSEAIDRATISPWPGTTLNLLKFPICNPTPYRMFKRHQRLKKDSTQAEEDLSEQEQNQLNVLKKHGYVVGRVGRTFLYSEEQKDNIPFEFDADSLAFDMENDPVMGTHKSTKQVELTAQDVKDAHWFYDTPGITKENCILNLLTEKEVNIVLPTQSIVPRTFVLKPGMVLFLGAIGRIDFLQGNQSAWFTVVASNILPVHITSLDRADALYQKHAGHTLLQIPMGGKERMAGFPPLVAEDIMLKEGLGASEAVADIKFSSAGWVSVTPNFKDRLHLRGYTPEGTVLTVRPPLLPYIVNIKGQRIKKSVAYKTKKPPSLMYNVRKKKGKINV

Further lines, the molecule ahead of its results:

Molecule: Coatomer subunit α (from UniProt P53621 1-1224)
- binding [2]: binds

Molecule: Inositol 1,4,5-trisphosphate receptor type 3 (from UniProt Q14573 1-2671)
- binding [2]: binds

Molecule: Protein transport protein Sec23A (from UniProt Q15436 1-765)
- binding [2]: binds

Molecule: Sorting nexin-9 (from UniProt Q9Y5X1 1-595)
- binding [2]: binds

Molecule: U5 small nuclear ribonucleoprotein 200-kDa helicase (from UniProt O75643 1-2136)
- binding [2]: binds

Molecule: Ubiquitin C-terminal hydrolase 7 (from UniProt Q93009 1-1102)
- binding [2]: binds

B3: Peptidyl-prolyl cis-trans isomerase-like 4 (protein, UniProt Q8WUA2 1-492)
chain: MAVLLETTLGDVVIDLYTEERPRACLNFLKLCKIKYYNYCLIHNVQRDFIIQTGDPTGTGRGGESIFGQLYGDQASFFEAEKVPRIKHKKKGTVSMVNNGSDQHGSQFLITTGENLDYLDGVHTVFGEVTEGMDIIKKINETFVDKDFVPYQDIRINHTVILDDPFDDPPDLLIPDRSPEPTREQLDSGRIGADEEIDDFKGRSAEEVEEIKAEKEAKTQAILLEMVGDLPDADIKPPENVLFVCKLNPVTTDEDLEIIFSRFGPIRSCEVIRDWKTGESLCYAFIEFEKEEDCEKAFFKMDNVLIDDRRIHVDFSQSVAKVKWKGKGGKYTKSDFKEYEKEQDKPPNLVLKDKVKPKQDTKYDLILDEQAEDSKSSHSHTSKKHKKKTHHCSEEKEDEDYMPIKNTNQDIYREMGFGHYEEEESCWEKQKSEKRDRTQNRSRSRSRERDGHYSNSHKSKYQTDLYERERSKKRDRSRSPKKSKDKEKSKYR
- binding [3]: binds
